According to the supplement of paper PMC4604168 (melanoma cell lines):
Some of the results follow. Many values rest on one well or one pass, so single values are uncertain.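 Cells were imaged in 1,536-well plates, and nuclei stained with an antibody against cleaved PARP were counted against all DNA-stained nuclei to give the apoptosis fraction. Screening doses were chosen to leave most cells alive, and resting and induced cleaved-PARP levels differ strongly between cell lines.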

Key:
Experiment in all cases: cleaved PARP positive nuclei fraction relative to DMSO control; melanoma cells; higher = more apoptosis
Details in all cases: library dose: low library concentration; 72 h
501Mel = test system: 501Mel
A101D = test system: A101D
A2058 = test system: A2058
A375 = test system: A375
C32 = test system: C32
CBRC008 = test system: CBRC008 (line from a melanoma biopsy)
CBRC014 = test system: CBRC014 (line from a melanoma biopsy)
CBRC016 = test system: CBRC016 (line from a melanoma biopsy)
CBRC017 = test system: CBRC017 (line from a melanoma biopsy)

Row | Compound | cleaved PARP positive nuclei fraction (501Mel) [%] | cleaved PARP positive nuclei fraction (A101D) [%] | cleaved PARP positive nuclei fraction (A2058) [%] | cleaved PARP positive nuclei fraction (A375) [%] | cleaved PARP positive nuclei fraction (C32) [%] | cleaved PARP positive nuclei fraction (CBRC008) [%] | cleaved PARP positive nuclei fraction (CBRC014) [%] | cleaved PARP positive nuclei fraction (CBRC016) [%] | cleaved PARP positive nuclei fraction (CBRC017) [%]
1 | Cn1cnc2c(F)c(Nc3ccc(Br)cc3Cl)c(C(=O)NOCCO)cc21 [selumetinib] + CN1CCN(c2ccc3nc(-c4c(N)c5c(F)cccc5[nH]c4=O)[nH]c3c2)CC1 [Dovitinib] (first compound 0.015 µM, partner dose 0.1 µM) | 2160 | 43.7 | 181 | 244 | 87.8 | 127 | 93.4 | 67.2 | 133
2 | C[C@@H](N)c1ccc(C(=O)Nc2ccnc3[nH]ccc23)cc1 + CCCCCCCCc1ccc(CCC(N)(CO)CO)cc1 [fingolimod] (first compound 0.4 µM, partner dose 2 µM) | 87.9 | 30 | 107 | 178 | 92.1 | 62.6 | 105 | 81.3 | 161
3 | CC1(C)CCC(c2ccc(Cl)cc2)=C(CN2CCN(c3ccc(C(=O)NS(=O)(=O)c4ccc(N[C@H](CCN5CCOCC5)CSc5ccccc5)c(S(=O)(=O)C(F)(F)F)c4)cc3)CC2)C1 + Cc1cc(Nc2cc(N3CCN(C)CC3)nc(/C=C/c3ccccc3)n2)n[nH]1 [ENMD2076] (first compound 0.4 µM, partner dose 0.04 µM) | 223 | 176 | 129 | 551 | 908 | 183 | 591 | 658 | 329
4 | C[C@]1(O)C[C@@H](c2nc(-c3ccc4ccc(-c5ccccc5)nc4c3)c3c(N)nccn32)C1 + CC(=O)O[C@@]12CO[C@@H]1C[C@H](O)[C@@]1(C)C(=O)[C@H](O)C3=C(C)[C@@H](OC(=O)[C@H](O)[C@@H](NC(=O)OC(C)(C)C)c4ccccc4)C[C@@](O)([C@@H](OC(=O)c4ccccc4)[C@H]21)C3(C)C [Docetaxel] (first compound 0.4 µM, partner dose 0.0001 µM) | 811 | 184 | 7670 | 5230 | 101 | 397 | 117 | 169 | 165
5 | C[C@@H](N)c1ccc(C(=O)Nc2ccnc3[nH]ccc23)cc1 + C[C@]1(c2nc3c(C(N)=O)cccc3[nH]2)CCCN1 [Veliparib] (first compound 0.4 µM, partner dose 1.4 µM) | 77.6 | 48.8 | 213 | 328 | 112 | 43.5 | 87.5 | 49.5 | 79.2
6 | NC(=O)c1ccc(N(C(N)=O)c2c(F)cccc2F)nc1-c1ccc(F)cc1F + O=C(O)c1ccc2c(c1)nc(Nc1cccc(Cl)c1)c1ccncc12 [CX4945] (first compound 0.4 µM, partner dose 0.4 µM) | 136 | 119 | 258 | 201 | 194 | 55.3 | 139 | 77.7 | 152
7 | CCN(CC)CCNC(=O)c1c(C)[nH]c(/C=C2\C(=O)Nc3ccc(F)cc32)c1C [sunitinib] + CC(=O)O[C@@]12CO[C@@H]1C[C@H](O)[C@@]1(C)C(=O)[C@H](O)C3=C(C)[C@@H](OC(=O)[C@H](O)[C@@H](NC(=O)OC(C)(C)C)c4ccccc4)C[C@@](O)([C@@H](OC(=O)c4ccccc4)[C@H]21)C3(C)C [Docetaxel] (first compound 0.4 µM, partner dose 0.0001 µM) | 238 | 191 | 3100 | 2400 | 71.9 | 469 | 142 | 119 | 193
8 | CN(c1ncccc1CNc1nc(Nc2ccc3c(c2)CC(=O)N3)ncc1C(F)(F)F)S(C)(=O)=O + CO[C@H]1C[C@@H]2CC[C@@H](C)[C@@](O)(O2)C(=O)C(=O)N2CCCC[C@H]2C(=O)O[C@H]([C@H](C)C[C@@H]2CC[C@@H](OCCO)[C@H](OC)C2)CC(=O)[C@H](C)/C=C(\C)[C@@H](O)[C@@H](OC)C(=O)[C@H](C)C[C@H](C)/C=C/C=C/C=C/1C [everolimus] (first compound 0.08 µM, partner dose 0.02 µM) | 391 | 160 | 183 | 624 | 90.8 | 237 | 90.2 | 125 | 117
9 | NC1(c2ccc(-c3nc4ccn5c(=O)[nH]nc5c4cc3-c3ccccc3)cc2)CCC1 + Nc1ncn([C@H]2C[C@H](O)[C@@H](CO)O2)c(=O)n1 [decitabine] (first compound 0.4 µM, partner dose 0.1 µM) | 104 | 55.6 | 97.3 | 267 | 97.4 | 48.8 | 102 | 68.6 | 115
10 | C[C@@H](N)c1ccc(C(=O)Nc2ccnc3[nH]ccc23)cc1 + C#Cc1cccc(Nc2ncnc3cc(OCCOC)c(OCCOC)cc23)c1 [erlotinib] (first compound 0.4 µM, partner dose 0.8 µM) | 103 | 57.6 | 57.2 | 97.9 | 334 | 52.5 | 125 | 208 | 100
11 | CC(=O)O[C@@]12CO[C@@H]1C[C@H](O)[C@@]1(C)C(=O)[C@H](O)C3=C(C)[C@@H](OC(=O)[C@H](O)[C@@H](NC(=O)OC(C)(C)C)c4ccccc4)C[C@@](O)([C@@H](OC(=O)c4ccccc4)[C@H]21)C3(C)C [Docetaxel] + C[C@]1(c2nc3c(C(N)=O)cccc3[nH]2)CCCN1 [Veliparib] (first compound 0.0001 µM, partner dose 1.4 µM) | 132 | 104 | 2930 | 5540 | 95.5 | 580 | 137 | 160 | 252
12 | CCN(CC)CCNC(=O)c1c(C)[nH]c(/C=C2\C(=O)Nc3ccc(F)cc32)c1C [sunitinib] + CCCS(=O)(=O)Nc1ccc(F)c(C(=O)c2c[nH]c3ncc(Cl)cc23)c1F [PLX4720] (first compound 0.4 µM, partner dose 0.08 µM) | 204 | 146 | 138 | 149 | 101 | 35.5 | 95 | 248 | 93.7
13 | Cn1cnc2c(F)c(Nc3ccc(Br)cc3Cl)c(C(=O)NOCCO)cc21 [selumetinib] + Nc1ncn([C@H]2C[C@H](O)[C@@H](CO)O2)c(=O)n1 [decitabine] (first compound 0.015 µM, partner dose 0.1 µM) | 1010 | 109 | 69.5 | 303 | 80.3 | 268 | 78 | 218 | 150
14 | CC1(C)CCC(c2ccc(Cl)cc2)=C(CN2CCN(c3ccc(C(=O)NS(=O)(=O)c4ccc(N[C@H](CCN5CCOCC5)CSc5ccccc5)c(S(=O)(=O)C(F)(F)F)c4)cc3)CC2)C1 + OCc1c[nH]c2ccccc12 [Indole-3-carbinol] (first compound 0.4 µM, partner dose 0.8 µM) | 136 | 191 | 118 | 329 | 299 | 352 | 661 | 659 | 258
15 | Cn1sc(=O)n(Cc2ccccc2)c1=O + CC(C)C[C@H](NC(=O)[C@H](Cc1ccccc1)NC(=O)c1cnccn1)B(O)O [Bortezomib] (first compound 0.4 µM, partner dose 0.001 µM) | 121 | 78 | 143 | 147 | 42.5 | 618 | 133 | 41.3 | 133
16 | CN(c1ncccc1CNc1nc(Nc2ccc3c(c2)CC(=O)N3)ncc1C(F)(F)F)S(C)(=O)=O + Nc1ccn([C@@H]2O[C@H](CO)[C@@H](O)C2(F)F)c(=O)n1 [gemcitabine] (first compound 0.08 µM, partner dose 0.0004 µM) | 240 | 113 | 116 | 159 | 114 | 30.4 | 130 | 260 | 130
17 | NC(=O)c1ccc(N(C(N)=O)c2c(F)cccc2F)nc1-c1ccc(F)cc1F + NC1(c2ccc(-c3nc4ccn5c(=O)[nH]nc5c4cc3-c3ccccc3)cc2)CCC1 [MK2206] (first compound 0.4 µM, partner dose 0.4 µM) | 99 | 414 | 20.4 | 79.6 | 81.3 | 103 | 78.1 | 64.1 | 105
18 | Cn1sc(=O)n(Cc2ccccc2)c1=O + COc1ccc(C2=N[C@@H](c3ccc(Cl)cc3)[C@@H](c3ccc(Cl)cc3)N2C(=O)N2CCNC(=O)C2)c(OC(C)C)c1 [Nutlin-3] (first compound 0.4 µM, partner dose 0.1 µM) | 68.8 | 148 | 208 | 44 | 70.3 | 63.3 | 110 | 147 | 142
19 | CCN(CC)CCNC(=O)c1c(C)[nH]c(/C=C2\C(=O)Nc3ccc(F)cc32)c1C [sunitinib] + Nc1nc(F)nc2c1ncn2[C@@H]1O[C@H](CO)[C@@H](O)[C@@H]1O [fludarabine] (first compound 0.4 µM, partner dose 0.2 µM) | 16600 | 147 | 72.3 | 1890 | 282 | 104 | 89.6 | 147 | 98.5
20 | C[C@]1(O)C[C@@H](c2nc(-c3ccc4ccc(-c5ccccc5)nc4c3)c3c(N)nccn32)C1 + COc1ccc(Cl)c(Nc2nc3ccccc3nc2NS(=O)(=O)c2cccc(NC(=O)C(C)(C)N)c2)c1 [XL147] (first compound 0.4 µM, partner dose 0.8 µM) | 103 | 32.3 | 156 | 346 | 86.2 | 159 | 113 | 47.9 | 122
21 | CCCCCCCCc1ccc(CCC(N)(CO)CO)cc1 [fingolimod] + CCCS(=O)(=O)Nc1ccc(F)c(C(=O)c2c[nH]c3ncc(Cl)cc23)c1F [PLX4720] (first compound 2 µM, partner dose 0.08 µM) | 188 | 137 | 24.1 | 439 | 91.7 | 73.9 | 114 | 61.5 | 113

Nothing new here: an excerpt of the list.
Row | Compound | cleaved PARP positive nuclei fraction (501Mel) [%] | cleaved PARP positive nuclei fraction (A101D) [%] | cleaved PARP positive nuclei fraction (A2058) [%] | cleaved PARP positive nuclei fraction (A375) [%] | cleaved PARP positive nuclei fraction (C32) [%] | cleaved PARP positive nuclei fraction (CBRC008) [%] | cleaved PARP positive nuclei fraction (CBRC014) [%] | cleaved PARP positive nuclei fraction (CBRC016) [%] | cleaved PARP positive nuclei fraction (CBRC017) [%]
14 | CC1(C)CCC(c2ccc(Cl)cc2)=C(CN2CCN(c3ccc(C(=O)NS(=O)(=O)c4ccc(N[C@H](CCN5CCOCC5)CSc5ccccc5)c(S(=O)(=O)C(F)(F)F)c4)cc3)CC2)C1 + OCc1c[nH]c2ccccc12 [Indole-3-carbinol] (first compound 0.4 µM, partner dose 0.8 µM) | 136 | 191 | 118 | 329 | 299 | 352 | 661 | 659 | 258
15 | Cn1sc(=O)n(Cc2ccccc2)c1=O + CC(C)C[C@H](NC(=O)[C@H](Cc1ccccc1)NC(=O)c1cnccn1)B(O)O [Bortezomib] (first compound 0.4 µM, partner dose 0.001 µM) | 121 | 78 | 143 | 147 | 42.5 | 618 | 133 | 41.3 | 133
16 | CN(c1ncccc1CNc1nc(Nc2ccc3c(c2)CC(=O)N3)ncc1C(F)(F)F)S(C)(=O)=O + Nc1ccn([C@@H]2O[C@H](CO)[C@@H](O)C2(F)F)c(=O)n1 [gemcitabine] (first compound 0.08 µM, partner dose 0.0004 µM) | 240 | 113 | 116 | 159 | 114 | 30.4 | 130 | 260 | 130
17 | NC(=O)c1ccc(N(C(N)=O)c2c(F)cccc2F)nc1-c1ccc(F)cc1F + NC1(c2ccc(-c3nc4ccn5c(=O)[nH]nc5c4cc3-c3ccccc3)cc2)CCC1 [MK2206] (first compound 0.4 µM, partner dose 0.4 µM) | 99 | 414 | 20.4 | 79.6 | 81.3 | 103 | 78.1 | 64.1 | 105
